These are yes or no findings as the source states them, for the method shown. Binding seen in cells or lysates may run through a third protein. Some entries that bind do so weakly or less than the wild type. Tags and fused reporters may be left off the sequences shown.
Target: FOXO1-MYC (UniProt Q9R1E0)
Experiment: co-IP; HEK293T cells transfected with tagged expression vectors (for MDM2 with nFOXO1: GFP-CRY1 co-expressed); total cell lysates immunoprecipitated with an anti-MYC antibody, protein A sepharose, 4 °C; western blotting

Sequences of proteins named here, by UniProt entry; tags and fusion partners are left off.
UniProt Q9R1E0: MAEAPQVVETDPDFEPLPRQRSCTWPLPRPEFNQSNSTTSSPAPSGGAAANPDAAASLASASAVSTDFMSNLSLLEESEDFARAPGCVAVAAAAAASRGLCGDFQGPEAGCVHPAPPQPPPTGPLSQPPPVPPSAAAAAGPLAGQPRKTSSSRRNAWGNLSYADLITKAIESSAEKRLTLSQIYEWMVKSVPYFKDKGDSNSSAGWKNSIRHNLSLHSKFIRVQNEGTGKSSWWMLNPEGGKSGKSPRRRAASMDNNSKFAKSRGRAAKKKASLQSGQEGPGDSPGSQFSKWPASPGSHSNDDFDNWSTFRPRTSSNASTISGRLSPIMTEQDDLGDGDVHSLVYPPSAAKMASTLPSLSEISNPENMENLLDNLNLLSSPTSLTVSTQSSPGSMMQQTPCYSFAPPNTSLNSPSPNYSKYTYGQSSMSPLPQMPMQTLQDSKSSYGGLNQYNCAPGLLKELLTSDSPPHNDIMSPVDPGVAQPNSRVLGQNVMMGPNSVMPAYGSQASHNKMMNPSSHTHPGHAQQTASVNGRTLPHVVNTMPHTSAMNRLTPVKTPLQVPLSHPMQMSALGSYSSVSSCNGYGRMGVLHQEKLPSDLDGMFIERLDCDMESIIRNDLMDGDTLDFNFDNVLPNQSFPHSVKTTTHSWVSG

binding: binds
B1: GFP-CRY1 (protein, UniProt P97784 1-606)
chain: MGVNAVHWFRKGLRLHDNPALKECIQGADTIRCVYILDPWFAGSSNVGINRWRFLLQCLEDLDANLRKLNSRLFVIRGQPADVFPRLFKEWNITKLSIEYDSEPFGKERDAAIKKLATEAGVEVIVRISHTLYDLDKIIELNGGQPPLTYKRFQTLVSKMEPLEMPADTITSDVIGKCMTPLSDDHDEKYGVPSLEELGFDTDGLSSAVWPGGETEALTRLERHLERKAWVANFERPRMNANSLLASPTGLSPYLRFGCLSCRLFYFKLTDLYKKVKKNSSPPLSLYGQLLWREFFYTAATNNPRFDKMEGNPICVQIPWDKNPEALAKWAEGRTGFPWIDAIMTQLRQEGWIHHLARHAVACFLTRGDLWISWEEGMKVFEELLLDADWSINAGSWMWLSCSSFFQQFFHCYCPVGFGRRTDPNGDYIRRYLPVLRGFPAKYIYDPWNAPEGIQKVAKCLIGVNYPKPMVNHAEASRLNIERMKQIYQQLSRYRGLGLLASVPSNSNGNGGLMGYAPGENVPSCSSSGNGGLMGYAPGENVPSCSGGNCSQGSGILHYAHGDSQQTHSLKQGRSSAGTGLSSGKRPSQEEDAQSVGPKVQRQSSN
